Source: the supplement of paper PMC10849652
The list shows a part of the results.

The chains behind the UniProt entries cited, without tags or fusion partners. Where a name states a change or a piece, a line headed by the entry shows the natural chain unless it says otherwise.
UniProt O00411: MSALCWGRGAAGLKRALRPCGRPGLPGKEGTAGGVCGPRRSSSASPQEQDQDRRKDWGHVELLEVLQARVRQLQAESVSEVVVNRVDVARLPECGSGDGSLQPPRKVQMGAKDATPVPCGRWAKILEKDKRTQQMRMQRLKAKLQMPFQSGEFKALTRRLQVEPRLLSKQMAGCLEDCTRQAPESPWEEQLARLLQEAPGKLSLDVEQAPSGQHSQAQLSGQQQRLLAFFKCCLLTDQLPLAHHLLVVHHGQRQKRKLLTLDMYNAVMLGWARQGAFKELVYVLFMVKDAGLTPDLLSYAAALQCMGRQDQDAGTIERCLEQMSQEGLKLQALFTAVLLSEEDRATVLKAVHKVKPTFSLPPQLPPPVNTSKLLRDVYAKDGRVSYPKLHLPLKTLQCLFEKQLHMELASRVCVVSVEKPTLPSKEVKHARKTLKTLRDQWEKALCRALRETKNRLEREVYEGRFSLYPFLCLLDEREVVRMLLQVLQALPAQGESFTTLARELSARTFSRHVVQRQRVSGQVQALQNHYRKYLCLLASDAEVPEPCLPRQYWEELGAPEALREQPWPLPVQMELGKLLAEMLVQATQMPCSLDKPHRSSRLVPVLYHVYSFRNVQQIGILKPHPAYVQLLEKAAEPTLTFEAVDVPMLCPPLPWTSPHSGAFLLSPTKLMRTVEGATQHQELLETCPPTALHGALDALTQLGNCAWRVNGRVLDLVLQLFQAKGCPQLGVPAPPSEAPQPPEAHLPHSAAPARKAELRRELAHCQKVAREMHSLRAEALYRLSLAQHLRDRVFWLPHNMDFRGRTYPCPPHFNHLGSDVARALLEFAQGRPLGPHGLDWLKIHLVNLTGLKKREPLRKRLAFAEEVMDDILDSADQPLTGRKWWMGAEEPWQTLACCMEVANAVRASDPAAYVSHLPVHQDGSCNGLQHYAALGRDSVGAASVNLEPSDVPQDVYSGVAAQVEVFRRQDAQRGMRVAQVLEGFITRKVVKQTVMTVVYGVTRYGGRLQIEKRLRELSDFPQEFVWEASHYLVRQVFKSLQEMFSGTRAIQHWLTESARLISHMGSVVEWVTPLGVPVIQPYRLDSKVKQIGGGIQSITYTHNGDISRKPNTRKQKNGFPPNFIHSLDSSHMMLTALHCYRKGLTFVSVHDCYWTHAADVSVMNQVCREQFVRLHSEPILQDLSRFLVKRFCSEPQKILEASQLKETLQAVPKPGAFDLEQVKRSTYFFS
UniProt Q07864, whole entry, looked up: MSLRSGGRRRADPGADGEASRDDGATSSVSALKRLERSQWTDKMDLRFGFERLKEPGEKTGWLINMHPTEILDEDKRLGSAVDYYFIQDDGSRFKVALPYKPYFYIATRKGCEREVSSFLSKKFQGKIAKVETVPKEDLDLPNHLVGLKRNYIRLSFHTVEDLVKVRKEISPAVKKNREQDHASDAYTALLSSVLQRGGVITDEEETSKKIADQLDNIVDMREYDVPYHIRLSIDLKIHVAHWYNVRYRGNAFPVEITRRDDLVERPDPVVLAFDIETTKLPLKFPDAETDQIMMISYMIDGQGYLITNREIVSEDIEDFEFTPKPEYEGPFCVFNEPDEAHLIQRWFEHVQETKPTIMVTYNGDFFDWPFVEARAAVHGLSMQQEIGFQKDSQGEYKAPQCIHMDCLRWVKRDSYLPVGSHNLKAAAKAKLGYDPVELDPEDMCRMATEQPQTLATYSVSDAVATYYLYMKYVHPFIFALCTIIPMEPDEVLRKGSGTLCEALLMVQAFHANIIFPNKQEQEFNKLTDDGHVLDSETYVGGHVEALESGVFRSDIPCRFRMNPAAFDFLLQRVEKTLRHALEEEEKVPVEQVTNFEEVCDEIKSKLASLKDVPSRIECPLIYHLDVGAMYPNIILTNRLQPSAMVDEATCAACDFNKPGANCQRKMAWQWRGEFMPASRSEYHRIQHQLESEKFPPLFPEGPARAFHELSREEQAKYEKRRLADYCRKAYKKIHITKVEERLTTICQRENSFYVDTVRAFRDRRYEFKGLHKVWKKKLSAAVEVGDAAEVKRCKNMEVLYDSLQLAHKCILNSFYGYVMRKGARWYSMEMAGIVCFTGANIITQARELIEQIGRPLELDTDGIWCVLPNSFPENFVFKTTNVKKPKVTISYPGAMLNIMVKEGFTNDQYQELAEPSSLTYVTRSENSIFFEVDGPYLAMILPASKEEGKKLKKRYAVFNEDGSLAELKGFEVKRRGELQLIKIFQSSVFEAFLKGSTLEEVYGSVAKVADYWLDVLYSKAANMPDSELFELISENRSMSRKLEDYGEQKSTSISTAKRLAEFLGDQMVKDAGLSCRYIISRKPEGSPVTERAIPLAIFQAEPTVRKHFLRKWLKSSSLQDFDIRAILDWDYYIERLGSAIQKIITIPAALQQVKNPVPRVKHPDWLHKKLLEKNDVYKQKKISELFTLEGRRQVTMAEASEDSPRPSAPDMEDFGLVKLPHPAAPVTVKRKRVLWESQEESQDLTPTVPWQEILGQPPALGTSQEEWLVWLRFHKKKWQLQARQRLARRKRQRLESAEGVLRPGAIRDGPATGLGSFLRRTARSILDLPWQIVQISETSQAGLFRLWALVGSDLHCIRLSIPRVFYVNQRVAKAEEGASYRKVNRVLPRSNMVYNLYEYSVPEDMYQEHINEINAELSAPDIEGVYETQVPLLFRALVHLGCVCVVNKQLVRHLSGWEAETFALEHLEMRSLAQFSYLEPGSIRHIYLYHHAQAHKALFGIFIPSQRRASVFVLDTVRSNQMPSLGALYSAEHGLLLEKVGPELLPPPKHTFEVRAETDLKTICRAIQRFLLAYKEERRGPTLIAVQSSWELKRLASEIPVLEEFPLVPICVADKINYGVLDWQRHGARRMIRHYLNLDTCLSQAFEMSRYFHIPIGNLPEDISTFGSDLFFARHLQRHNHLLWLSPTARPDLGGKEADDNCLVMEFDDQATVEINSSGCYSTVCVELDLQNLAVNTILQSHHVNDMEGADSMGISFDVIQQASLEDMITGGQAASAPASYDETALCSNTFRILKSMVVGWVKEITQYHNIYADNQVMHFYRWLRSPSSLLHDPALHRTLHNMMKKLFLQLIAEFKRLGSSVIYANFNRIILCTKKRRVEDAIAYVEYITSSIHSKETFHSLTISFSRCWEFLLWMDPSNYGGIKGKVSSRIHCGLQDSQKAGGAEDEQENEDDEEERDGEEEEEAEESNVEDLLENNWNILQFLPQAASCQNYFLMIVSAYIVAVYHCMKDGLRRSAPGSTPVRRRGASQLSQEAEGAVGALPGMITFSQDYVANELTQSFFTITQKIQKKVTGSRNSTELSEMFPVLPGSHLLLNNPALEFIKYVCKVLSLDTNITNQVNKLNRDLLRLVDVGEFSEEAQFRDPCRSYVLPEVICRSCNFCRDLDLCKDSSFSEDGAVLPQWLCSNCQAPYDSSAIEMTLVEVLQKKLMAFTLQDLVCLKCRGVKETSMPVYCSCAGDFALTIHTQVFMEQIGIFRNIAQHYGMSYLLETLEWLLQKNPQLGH
UniProt Q9NP80: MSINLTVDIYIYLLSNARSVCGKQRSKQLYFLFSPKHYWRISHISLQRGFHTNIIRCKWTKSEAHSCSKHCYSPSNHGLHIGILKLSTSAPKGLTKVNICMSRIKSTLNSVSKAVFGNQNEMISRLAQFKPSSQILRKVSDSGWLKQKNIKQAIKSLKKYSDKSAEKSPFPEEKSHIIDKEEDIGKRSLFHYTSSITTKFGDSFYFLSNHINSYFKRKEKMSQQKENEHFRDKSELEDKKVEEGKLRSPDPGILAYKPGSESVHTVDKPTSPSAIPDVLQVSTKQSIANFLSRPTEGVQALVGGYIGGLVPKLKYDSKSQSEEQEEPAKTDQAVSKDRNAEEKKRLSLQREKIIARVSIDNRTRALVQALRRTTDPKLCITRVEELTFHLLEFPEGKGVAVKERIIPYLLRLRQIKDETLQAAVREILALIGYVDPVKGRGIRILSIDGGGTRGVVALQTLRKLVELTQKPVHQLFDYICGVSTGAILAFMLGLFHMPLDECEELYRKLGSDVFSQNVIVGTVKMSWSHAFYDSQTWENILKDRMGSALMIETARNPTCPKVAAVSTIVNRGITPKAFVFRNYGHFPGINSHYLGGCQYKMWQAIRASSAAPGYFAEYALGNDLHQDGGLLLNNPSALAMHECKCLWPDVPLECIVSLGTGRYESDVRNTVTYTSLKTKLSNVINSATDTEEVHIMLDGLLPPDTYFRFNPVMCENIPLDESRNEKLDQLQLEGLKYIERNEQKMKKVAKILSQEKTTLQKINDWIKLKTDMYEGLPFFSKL
UniProt O15318: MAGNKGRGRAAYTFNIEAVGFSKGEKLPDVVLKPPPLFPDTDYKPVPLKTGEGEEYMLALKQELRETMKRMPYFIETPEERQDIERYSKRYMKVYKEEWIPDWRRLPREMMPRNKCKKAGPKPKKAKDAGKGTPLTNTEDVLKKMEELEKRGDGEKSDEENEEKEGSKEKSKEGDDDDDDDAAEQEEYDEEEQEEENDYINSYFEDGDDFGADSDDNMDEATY
UniProt Q9Y244: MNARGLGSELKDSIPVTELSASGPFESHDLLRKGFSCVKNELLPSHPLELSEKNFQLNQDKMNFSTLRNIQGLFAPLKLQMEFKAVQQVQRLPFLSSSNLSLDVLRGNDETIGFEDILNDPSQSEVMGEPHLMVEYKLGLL
UniProt Q9NR33: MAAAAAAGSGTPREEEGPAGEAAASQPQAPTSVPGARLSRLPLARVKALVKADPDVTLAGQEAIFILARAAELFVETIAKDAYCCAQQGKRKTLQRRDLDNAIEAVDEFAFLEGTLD
UniProt Q9NQ55: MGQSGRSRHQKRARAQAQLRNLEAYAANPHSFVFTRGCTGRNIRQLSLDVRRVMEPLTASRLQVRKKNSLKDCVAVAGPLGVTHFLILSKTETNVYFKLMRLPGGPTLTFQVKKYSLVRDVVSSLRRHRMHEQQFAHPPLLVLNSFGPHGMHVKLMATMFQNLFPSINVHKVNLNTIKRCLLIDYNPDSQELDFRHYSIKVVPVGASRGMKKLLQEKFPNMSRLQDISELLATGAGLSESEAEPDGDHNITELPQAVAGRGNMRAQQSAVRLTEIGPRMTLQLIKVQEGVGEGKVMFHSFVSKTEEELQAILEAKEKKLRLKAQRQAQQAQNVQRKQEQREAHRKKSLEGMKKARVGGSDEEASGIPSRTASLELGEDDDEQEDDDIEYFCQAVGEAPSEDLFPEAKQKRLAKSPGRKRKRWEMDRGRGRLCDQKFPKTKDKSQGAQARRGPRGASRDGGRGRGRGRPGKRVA
UniProt Q99541: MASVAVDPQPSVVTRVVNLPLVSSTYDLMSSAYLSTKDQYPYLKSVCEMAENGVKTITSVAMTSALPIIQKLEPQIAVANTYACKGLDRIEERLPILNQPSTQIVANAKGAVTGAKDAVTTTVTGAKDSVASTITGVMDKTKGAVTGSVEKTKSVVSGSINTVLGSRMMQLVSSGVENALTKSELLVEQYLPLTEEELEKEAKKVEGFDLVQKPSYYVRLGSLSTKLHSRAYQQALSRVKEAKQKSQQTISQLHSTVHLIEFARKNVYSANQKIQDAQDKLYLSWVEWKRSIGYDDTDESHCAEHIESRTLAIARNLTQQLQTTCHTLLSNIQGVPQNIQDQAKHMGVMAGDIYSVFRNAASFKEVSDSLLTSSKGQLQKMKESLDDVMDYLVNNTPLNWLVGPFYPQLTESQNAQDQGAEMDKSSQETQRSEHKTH
UniProt Q9HAB8: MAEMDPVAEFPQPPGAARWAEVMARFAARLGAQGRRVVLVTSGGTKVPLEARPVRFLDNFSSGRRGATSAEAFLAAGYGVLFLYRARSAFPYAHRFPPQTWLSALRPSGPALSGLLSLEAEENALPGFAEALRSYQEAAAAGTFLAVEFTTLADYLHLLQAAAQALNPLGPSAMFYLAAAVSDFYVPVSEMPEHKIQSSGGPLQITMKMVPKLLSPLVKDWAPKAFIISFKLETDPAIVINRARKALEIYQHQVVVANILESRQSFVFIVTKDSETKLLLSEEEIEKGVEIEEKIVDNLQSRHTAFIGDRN
UniProt Q15054: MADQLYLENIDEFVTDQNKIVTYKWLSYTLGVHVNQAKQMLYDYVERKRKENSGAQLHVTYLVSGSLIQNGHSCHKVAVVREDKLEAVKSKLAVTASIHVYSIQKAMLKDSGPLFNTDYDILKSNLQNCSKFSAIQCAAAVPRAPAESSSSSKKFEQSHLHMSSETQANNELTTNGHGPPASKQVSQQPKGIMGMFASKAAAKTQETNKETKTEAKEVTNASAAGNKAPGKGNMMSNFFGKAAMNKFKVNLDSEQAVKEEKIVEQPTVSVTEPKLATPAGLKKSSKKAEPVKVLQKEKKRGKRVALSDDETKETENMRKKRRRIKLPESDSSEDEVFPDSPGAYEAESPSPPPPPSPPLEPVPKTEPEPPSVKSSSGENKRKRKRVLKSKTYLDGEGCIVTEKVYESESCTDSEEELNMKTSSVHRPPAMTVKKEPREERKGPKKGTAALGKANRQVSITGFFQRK

Experiments:
Assay in all cases: log2 fold change, soluble protein after heating vs DMSO (PISA); higher = thermal stabilisation; K562 lysate, 10 uM; active = over 0.2 and 3.5 SD of the protein, either way, in both replicates (recomputed)
[1] = compound: CCCS(=O)(=O)Nc1ccc(F)c(C(=O)c2c[nH]c3ncc(-c4ccc(Cl)cc4)cc23)c1F [vemurafenib]
In short: (§1)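 K562 pellets were dounce-homogenised in PBS pH 7.4 containing 1 mM MgCl2, and the crude extract, at 1 mg/mL protein, was exposed to 10 μM compound for 30 min. Aliquots were heated for 3 min across 48°C-58°C, pooled, brought to 0.5% NP-40 at 4°C and spun at 21,000xg for 90 min, with the supernatant taken as soluble protein. TMTpro 16plex LC-MS/MS with equalised channel sums quantified that protein. Values are log-two fold changes in thermal stability relative to solvent controls, taken from duplicates.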

[2] = compound: CCCS(=O)(=O)Nc1ccc(F)c(C(=O)c2c[nH]c3ncc(Cl)cc23)c1F
In short: as §1

[3] = compound: CCN(CCCOc1ccc2c(Nc3cc(CC(=O)Nc4cccc(F)c4)[nH]n3)ncnc2c1)CCOP(=O)(O)O [barasertib]
In short: as §1

[4] = compound: CC[C@@H]1C(=O)N(C)c2cnc(Nc3ccc(C(=O)NC4CCN(C)CC4)cc3OC)nc2N1C1CCCC1
In short: as §1

[5] = compound: CC[C@@H]1C(=O)N(C)c2cnc(Nc3ccc(C(=O)N[C@H]4CC[C@H](N5CCN(CC6CC6)CC5)CC4)cc3OC)nc2N1C(C)C [volasertib]
In short: as §1

[6] = compound: CCn1c(C(=O)N(C2CC2)C2CC2)cc2c3c(ncn3C)c(Nc3cc(C)n(C)n3)nc21
In short: as §1

[7] = compound: CCn1cc(-c2ccnc3[nH]c(-c4cccc(CN(C)C)c4)cc23)c(-c2ccc(NC(=O)N(C)C)cc2)n1
In short: as §1

[8] = compound: CN1CCC(CNc2ccc3ncc(-c4cccc(OC(F)(F)F)c4)n3n2)CC1
In short: as §1

[9] = compound: CN1CCN(CCOc2cc(OC3CCOCC3)c3c(Nc4c(Cl)ccc5c4OCO5)ncnc3c2)CC1 [saracatinib]
In short: as §1

[10] = compound: CN1CCN(c2nc(C3=C(c4c[nH]c5ccccc45)C(=O)NC3=O)c3ccccc3n2)CC1 [sotrastaurin]
In short: as §1

Measured: log2 fold change

POLR3C (UniProt Q9BUI4)
inactive: [1] -0.026 | [2] 0.007 | [3] 0.019 | [4] 0.026 | [5] 0 | [6] -0.02 | [7] -0.024 | [8] 0.026 | [9] -0.001 | [10] -0.009

POLR1C (UniProt O15160)
inactive: [1] -0.033 | [2] 0.012 | [3] 0.047 | [4] -0.034 | [5] -0.039 | [6] 0.004 | [7] -0.022 | [8] 0.014 | [9] 0.002 | [10] 0.031

POLR2H (UniProt P52434)
inactive: [1] 0.021 | [2] 0 | [3] 0.085 | [4] 0 | [5] 0.002 | [6] -0.011 | [7] -0.059 | [8] 0.049 | [9] 0.02 | [10] 0.007

POLRMT (UniProt O00411)
inactive: [1] 0.032 | [2] 0.018 | [3] 0.09 | [4] -0.081 | [5] -0.022 | [6] 0.019 | [7] 0.041 | [8] -0.062 | [9] 0.032 | [10] 0.052

PPCDC (UniProt Q96CD2)
inactive: [1] 0.1 | [2] 0.003 | [3] 0.066 | [4] 0.047 | [5] 0.006 | [6] 0.008 | [7] -0.342 | [8] 0.165 | [9] 0.018 | [10] 0.038

PNPLA6 (UniProt Q8IY17)
inactive: [1] -0.011 | [2] 0.02 | [3] 0.118 | [4] -0.24 | [5] -0.051 | [6] 0.008 | [7] -0.19 | [8] -0.097 | [9] 0.121 | [10] 0.023

POLE (UniProt Q07864)
inactive: [1] 0.046 | [2] -0.013 | [3] 0.013 | [4] 0.001 | [5] -0.033 | [6] -0.004 | [7] -0.041 | [8] -0.04 | [9] 0.046 | [10] 0.02

PLPBP (UniProt O94903)
inactive: [1] 0.014 | [2] 0.009 | [3] -0.013 | [4] -0.019 | [5] -0.006 | [6] 0 | [7] -0.022 | [8] 0.004 | [9] 0.011 | [10] -0.016

PNPLA8 (UniProt Q9NP80)
inactive: [1] -0.017 | [2] 0.039 | [3] 0.089 | [4] -0.185 | [5] 0.016 | [6] -0.018 | [7] 0.622 | [8] 0.018 | [9] 0.039 | [10] -0.094

PNP (UniProt P00491)
inactive: [1] -0.029 | [2] -0.012 | [3] -0.035 | [4] 0.007 | [5] 0.014 | [6] 0.013 | [7] -0.001 | [8] 0.049 | [9] -0.01 | [10] 0.022

POLR3G (UniProt O15318)
inactive: [1] 0.015 | [2] 0.003 | [3] 0.017 | [4] 0.091 | [5] -0.007 | [6] -0.048 | [7] -0.019 | [8] -0.028 | [9] -0.018 | [10] 0.059

PPIA (UniProt P62937)
inactive: [1] -0.03 | [2] 0.002 | [3] 0.021 | [4] -0.022 | [5] -0.001 | [6] 0.01 | [7] 0.028 | [8] -0.011 | [9] -0.001 | [10] 0.001

PPFIA1 (UniProt Q13136)
inactive: [1] 0.007 | [2] 0.002 | [3] -0.007 | [4] 0.021 | [5] -0.024 | [6] 0.005 | [7] -0.028 | [8] 0.004 | [9] 0.016 | [10] 0.014

POP5 (UniProt Q969H6)
inactive: [1] -0.028 | [2] 0.043 | [3] -0.019 | [4] -0.029 | [5] 0.022 | [6] 0.099 | [7] -0.061 | [8] 0.048 | [9] 0.036 | [10] -0.016

POLR2L (UniProt P62875)
inactive: [1] -0.046 | [2] -0.008 | [3] 0.208 | [4] -0.132 | [5] -0.001 | [6] 0.01 | [7] 0.022 | [8] -0.097 | [9] -0.058 | [10] -0.05

POLR3F (UniProt Q9H1D9)
inactive: [1] 0.039 | [2] -0.021 | [3] -0.008 | [4] -0.037 | [5] -0.018 | [6] -0.017 | [7] 0.072 | [8] -0.01 | [9] 0.016 | [10] 0.043

POLR3GL (UniProt Q9BT43)
inactive: [1] -0.038 | [2] -0.037 | [3] -0.065 | [4] 0.017 | [5] 0 | [6] -0.108 | [7] 0.116 | [8] -0.04 | [9] -0.062 | [10] 0.008

POMP (UniProt Q9Y244)
inactive: [1] -0.022 | [2] 0.001 | [3] -0.034 | [4] 0.039 | [5] -0.007 | [6] -0.028 | [7] 0.065 | [8] -0.061 | [9] 0.056 | [10] -0.064

POLE4 (UniProt Q9NR33)
inactive: [1] 0.048 | [2] 0.023 | [3] 0.115 | [4] -0.056 | [5] 0.007 | [6] 0.007 | [7] -0.103 | [8] -0.031 | [9] -0.041 | [10] -0.024

POLR2B (UniProt P30876)
inactive: [1] 0.021 | [2] -0.004 | [3] 0.039 | [4] -0.049 | [5] -0.074 | [6] 0.01 | [7] -0.029 | [8] 0.017 | [9] 0.016 | [10] 0.024

POLR2D (UniProt O15514)
inactive: [1] 0.04 | [2] 0.001 | [3] 0.258 | [4] 0.087 | [5] -0.008 | [6] 0.011 | [7] 0.061 | [8] 0.041 | [9] 0.057 | [10] 0.014

PPAN isoform 3 (UniProt Q9NQ55)
inactive: [1] -0.028 | [2] 0.022 | [3] -0.025 | [4] 0.027 | [5] -0.004 | [6] 0.015 | [7] -0.113 | [8] 0.018 | [9] 0.016 | [10] 0.001

PLOD1 (UniProt Q02809)
inactive: [1] 0.008 | [2] 0.012 | [3] 0.027 | [4] 0.014 | [5] -0.002 | [6] 0.007 | [7] -0.045 | [8] 0.027 | [9] 0.016 | [10] 0.03

PLIN2 (UniProt Q99541)
inactive: [1] 0.014 | [2] -0.01 | [3] 0.073 | [4] 0.033 | [5] 0.003 | [6] 0.048 | [7] 0.033 | [8] -0.181 | [9] 0.019 | [10] 0.007

PMS2 (UniProt P54278)
inactive: [1] -0.015 | [2] -0.028 | [3] 0.033 | [4] -0.072 | [5] -0.147 | [6] 0.101 | [7] -0.02 | [8] 0.012 | [9] -0.004 | [10] 0.001

Taken from the entries so far (two entries):
PLIN2 (UniProt Q99541)
inactive: [1] 0.014 | [2] -0.01 | [3] 0.073 | [4] 0.033 | [5] 0.003 | [6] 0.048 | [7] 0.033 | [8] -0.181 | [9] 0.019 | [10] 0.007

PMS2 (UniProt P54278)
inactive: [1] -0.015 | [2] -0.028 | [3] 0.033 | [4] -0.072 | [5] -0.147 | [6] 0.101 | [7] -0.02 | [8] 0.012 | [9] -0.004 | [10] 0.001

Continued:

PPAT (UniProt Q06203)
inactive: [1] -0.014 | [2] 0.032 | [3] -0.009 | [4] -0.006 | [5] 0.002 | [6] 0.007 | [7] 0.193 | [8] -0.04 | [9] -0.038 | [10] -0.018

PML (UniProt P29590)
inactive: [1] -0.008 | [2] 0.005 | [3] -0.026 | [4] 0.007 | [5] 0.01 | [6] -0.015 | [7] -0.052 | [8] 0.033 | [9] 0.034 | [10] -0.008

PPCS (UniProt Q9HAB8)
inactive: [1] 0.084 | [2] 0 | [3] -0.001 | [4] -0.001 | [5] -0.014 | [6] -0.017 | [7] -0.009 | [8] 0.005 | [9] -0.038 | [10] -0.028

POLR2A, A0A590UJN4
inactive: [1] 0.006 | [2] 0.011 | [3] 0.026 | [4] -0.015 | [5] -0.058 | [6] 0.012 | [7] -0.048 | [8] -0.01 | [9] 0 | [10] -0.02

POLD3 (UniProt Q15054)
inactive: [1] 0.003 | [2] -0.005 | [3] 0.004 | [4] -0.014 | [5] -0.045 | [6] -0.013 | [7] 0.009 | [8] -0.03 | [9] 0.028 | [10] -0.01
